Measured values reported in patent US6599896B1 (Les Laboratoires Servier, priority 1999, dated 2003).

System: cortical neurons in culture
Assay: In vitro neurotoxicity caused by hypoxia in cortical cells (LDH activity)
Format: cell-based, rat
Conditions: 3 hours hypoxia, LDH after 24 hours
Procedure: Cortical cells are extracted from Sprague-Dawley rat foetuses and cultured in MEM (minimum essential medium) containing 5% horse serum and 5% calf foetus serum. The cultures are maintained at 37° C. in an atmosphere of 93% air and 7% CO2. Just before hypoxia, the culture medium is replaced by 300 μl of saline solution buffered with HEPES (HCSS). The cells are incubated for 10 minutes under these conditions at ambient temperature. […] The culture media are then replaced by 300 μl of deoxygenated PIPES buffer at pH 7.4.
The cells are then incubated for 3 hours in a hypoxic atmosphere containing 95% N2 and 5% O2 at 37° C. The culture media are then replaced by 200 μl of MEM without serum and the cells are incubated again for 24 hours at 37° C. under standard conditions. After morphological examination of the cells, the culture supernatants are collected and the lactate dehydrogenase (LDH) activity therein is measured.

Compound: CN1c2ccccc2C(NCCCCCCC(=O)O)c2ccc(Cl)cc2S1(=O)=O (stereo not drawn) [tianeptine]
- reduction of neurotoxicity caused by hypoxia (LDH activity) (1 μM): 98.8%
- reduction of neurotoxicity caused by hypoxia (LDH activity) (10 μM): 91.7%
- reduction of neurotoxicity caused by hypoxia (LDH activity) (100 μM): 91.4%
